We go through one substance from PMC12718141.

This assay has as its target T1, FLAG-tagged FKBP4 (human) (UniProt Q02790).
T1 sequence: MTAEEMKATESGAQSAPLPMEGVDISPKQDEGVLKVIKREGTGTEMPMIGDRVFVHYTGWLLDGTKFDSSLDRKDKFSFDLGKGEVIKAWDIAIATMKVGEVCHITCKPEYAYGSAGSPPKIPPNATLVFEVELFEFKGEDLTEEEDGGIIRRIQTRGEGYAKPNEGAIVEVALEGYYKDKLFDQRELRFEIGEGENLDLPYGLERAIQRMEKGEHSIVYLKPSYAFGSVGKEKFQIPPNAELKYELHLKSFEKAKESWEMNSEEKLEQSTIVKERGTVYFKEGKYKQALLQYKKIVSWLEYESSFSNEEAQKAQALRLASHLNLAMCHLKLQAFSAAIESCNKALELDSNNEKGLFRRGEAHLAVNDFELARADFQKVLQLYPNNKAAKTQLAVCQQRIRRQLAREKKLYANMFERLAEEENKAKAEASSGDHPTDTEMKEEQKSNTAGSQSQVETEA
The experiment in a line: co-IP; HEK293T transfected 48 h; lysis in 20 mM Tris-HCl pH 7.5, 130 mM NaCl, 20 mM Na2MoO4, 1 mM EDTA, 10% glycerol, 0.5% Triton X-100; anti-c-Myc or anti-FLAG antibody 2 h at 4 °C, protein G magnetic beads; endogenous proteins detected by western blotting. (In general: Immunoblotting shows a protein as a band on a membrane.)

No constants are given. Whether binding was seen depends on the method and setting. In cells and extracts the contact can be indirect. Tags and fused reporters may be left off the sequences shown.

With HSP70 (human (endogenous in HEK293T)), the binding entry is “no binding”.
